According to paper doi:10.1101/2023.10.06.559866:
These are yes or no findings as the source states them, for the method shown. In cells and extracts the contact can be indirect. A yes stands for co-enrichment or nearness to the bait. Other partners may have been found. Tags and fused reporters may be left off the sequences shown.

The chains behind the UniProt entries cited, without tags or fusion partners.
UniProt P60468: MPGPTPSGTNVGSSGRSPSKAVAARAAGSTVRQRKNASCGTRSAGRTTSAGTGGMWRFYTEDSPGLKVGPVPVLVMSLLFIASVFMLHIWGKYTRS
UniProt Q99720: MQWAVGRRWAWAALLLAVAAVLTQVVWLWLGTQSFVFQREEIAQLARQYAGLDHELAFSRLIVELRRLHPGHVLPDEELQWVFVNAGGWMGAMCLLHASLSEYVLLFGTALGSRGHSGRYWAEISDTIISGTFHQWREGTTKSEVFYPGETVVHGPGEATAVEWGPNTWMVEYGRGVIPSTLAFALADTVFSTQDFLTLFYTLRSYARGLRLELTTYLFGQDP

B1: SRPRB (SRβ) (protein, UniProt Q9Y5M8 1-271)
chain: MASADSRRVADGGGAGGTFQPYLDTLRQELQQTDPTLLSVVVAVLAVLLTLVFWKLIRSRRSSQRAVLLVGLCDSGKTLLFVRLLTGLYRDTQTSITDSCAVYRVNNNRGNSLTLIDLPGHESLRLQFLERFKSSARAIVFVVDSAAFQREVKDVAEFLYQVLIDSMGLKNTPSFLIACNKQDIAMAKSAKLIQQQLEKELNTLRVTRSAAPSTLDSSSTAPAQLGKKGKEFEFSQLPLKVEFLECSAKGGRGDVGSADIQDLEKWLAKIA

The molecules below were run against T1, 3x FLAG-mNeon-tagged Lrrc59 (UniProt Q96AG4) (assay: affinity purification with mass spectrometry).
T1 sequence: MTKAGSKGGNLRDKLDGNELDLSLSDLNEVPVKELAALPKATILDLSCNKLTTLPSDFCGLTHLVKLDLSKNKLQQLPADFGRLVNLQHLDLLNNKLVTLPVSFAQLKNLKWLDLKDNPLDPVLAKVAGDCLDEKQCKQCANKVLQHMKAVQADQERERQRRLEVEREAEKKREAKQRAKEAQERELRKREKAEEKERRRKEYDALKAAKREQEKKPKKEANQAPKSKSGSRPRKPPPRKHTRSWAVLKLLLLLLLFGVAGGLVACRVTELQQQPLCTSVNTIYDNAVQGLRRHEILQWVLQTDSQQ

binding, binds:
SEC61B (Sec61β) (from UniProt P60468 1-96)
Sigma-1 receptor (from UniProt Q99720 1-223)
B1
